Experiment [1] concerns the target CelDnc, truncated construct of the endoglucanase CelD from Clostridium thermocellum (Clostridium thermocellum) (UniProt A3DDN1). Put plainly: SEC; Superdex 200 16/60, buffer 40 mM Tris pH 7.7, after TEV cleavage and second IMAC; both purified. In general terms: In gel filtration, larger molecules generally elute earlier.
The target in experiment [2] is CelDwt, endoglucanase CelD from Clostridium thermocellum (Clostridium thermocellum) (UniProt A3DDN1). Described as above.

Results are given in words; binding and its absence hold for the method and conditions named. Sequences can lack the tags named with a protein.

B1: CelDnc, truncated construct of the endoglucanase CelD from Clostridium thermocellum (domain or fragment, UniProt A3DDN1 32-577)
chain: SGLIETKVSAAKITENYQFDSRIRLNSIGFIPNHSKKATIAANCSTFYVVKEDGTIVYTGTATSMFDNDTKETVYIADFSSVNEEGTYYLAVPGVGKSVNFKIAMNVYEDAFKTAMLGMYLLRCGTSVSATYNGIHYSHGPCHTNDAYLDYINGQHTKKDSTKGWHDAGDYNKYVVNAGITVGSMFLAWEHFKDQLEPVALEIPEKNNSIPDFLDELKYEIDWILTMQYPDGSGRVAHKVSTRNFGGFIMPENEHDERFFVPWSSAATADFVAMTAMAARIFRPYDPQYAEKCINAAKVSYEFLKNNPANVFANQSGFSTGEYATVSDADDRLWAAAEMWETLGDEEYLRDFENRAAQFSKKIEADFDWDNVANLGMFTYLLSERPGKNPALVQSIKDSLLSTADSIVRTSQNHGYGRTLGTTYYWGCNGTVVRQTMILQVANKISPNNDYVNAALDAISHVFGRNYYNRSYVTGLGINPPMNPHDRRSGADGIWEPWPGYLVGGGWPGPKDWVDIQDSYQTNEIAINWNAALIYALAGFVNYNSA
With B1, the binding entry in experiment [1] is recorded as “no binding”.

B2: CelDwt, endoglucanase CelD from Clostridium thermocellum (enzyme, UniProt A3DDN1 42-649)
chain: AKITENYQFDSRIRLNSIGFIPNHSKKATIAANCSTFYVVKEDGTIVYTGTATSMFDNDTKETVYIADFSSVNEEGTYYLAVPGVGKSVNFKIAMNVYEDAFKTAMLGMYLLRCGTSVSATYNGIHYSHGPCHTNDAYLDYINGQHTKKDSTKGWHDAGDYNKYVVNAGITVGSMFLAWEHFKDQLEPVALEIPEKNNSIPDFLDELKYEIDWILTMQYPDGSGRVAHKVSTRNFGGFIMPENEHDERFFVPWSSAATADFVAMTAMAARIFRPYDPQYAEKCINAAKVSYEFLKNNPANVFANQSGFSTGEYATVSDADDRLWAAAEMWETLGDEEYLRDFENRAAQFSKKIEADFDWDNVANLGMFTYLLSERPGKNPALVQSIKDSLLSTADSIVRTSQNHGYGRTLGTTYYWGCNGTVVRQTMILQVANKISPNNDYVNAALDAISHVFGRNYYNRSYVTGLGINPPMNPHDRRSGADGIWEPWPGYLVGGGWPGPKDWVDIQDSYQTNEIAINWNAALIYALAGFVNYNSAQNEVLYGDVNDDGKVNSTDLTLLKRYVLKAVSTLPSSKAEKNADVNRDGRVNSSDVTILSRYLIRVIEKLPI
Turning to B2, in experiment [2], the binding result was “no binding”.

The values are drawn from publication PMC3934309.
